# Measurements taken from article PMC10272187.
# Sequences of proteins named here, by UniProt entry; tags and fusion partners are left off.
# UniProt P30153: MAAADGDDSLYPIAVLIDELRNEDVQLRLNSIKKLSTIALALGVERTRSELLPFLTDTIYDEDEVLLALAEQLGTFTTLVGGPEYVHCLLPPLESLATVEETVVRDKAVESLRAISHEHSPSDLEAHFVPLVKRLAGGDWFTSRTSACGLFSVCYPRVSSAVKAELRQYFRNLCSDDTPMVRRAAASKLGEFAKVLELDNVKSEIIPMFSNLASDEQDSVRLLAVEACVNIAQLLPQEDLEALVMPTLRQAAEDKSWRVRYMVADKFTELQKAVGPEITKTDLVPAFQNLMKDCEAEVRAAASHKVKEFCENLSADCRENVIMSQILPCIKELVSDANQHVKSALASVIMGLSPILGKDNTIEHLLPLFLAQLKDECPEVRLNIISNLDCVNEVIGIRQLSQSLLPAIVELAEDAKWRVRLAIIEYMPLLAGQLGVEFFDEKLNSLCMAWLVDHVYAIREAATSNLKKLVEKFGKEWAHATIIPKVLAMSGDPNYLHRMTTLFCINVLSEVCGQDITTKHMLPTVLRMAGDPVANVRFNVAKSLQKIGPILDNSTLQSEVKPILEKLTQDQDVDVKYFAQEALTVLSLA
# These are yes or no findings as the source states them, for the method shown. Binding seen in cells or lysates may run through a third protein. A yes stands for co-enrichment or nearness to the bait. Other partners may have been found. For part of these data: A no says only that the protein was not detected with the bait.
# Target: FLAG-GFP PPP2R1A, P30153
# Test: affinity purification with mass spectrometry; Tandem affinity purification (FLAG then GFP) of FLAG-GFP PPP2R1A from stable MCF10A and MDA-MB-231 cells; XB-NP40 lysis buffer, 4 °C; FLAG-GFP as control
# Conditions: remark: other sources report otherwise
row,binding,Binder
1,binds,"PPP2R1B, P30154 1-601 (protein) MAGASELGTGPGAAGGDGDDSLYPIAVLIDELRNEDVQLRLNSIKKLSTIALALGVERTRSELLPFLTDTIYDEDEVLLALAEQLGNFTGLVGGPDFAHCLLPPLENLATVEETVVRDKAVESLRQISQEHTPVALEAYFVPLVKRLASGDWFTSRTSACGLFSVCYPRASNAVKAEIRQQFRSLCSDDTPMVRRAAASKLGEFAKVLELDSVKSEIVPLFTSLASDEQDSVRLLAVEACVSIAQLLSQDDLETLVMPTLRQAAEDKSWRVRYMVADRFSELQKAMGPKITLNDLIPAFQNLLKDCEAEVRAAAAHKVKELGENLPIEDRETIIMNQILPYIKELVSDTNQHVKSALASVIMGLSTILGKENTIEHLLPLFLAQLKDECPDVRLNIISNLDCVNEVIGIRQLSQSLLPAIVELAEDAKWRVRLAIIEYMPLLAGQLGVEFFDEKLNSLCMAWLVDHVYAIREAATNNLMKLVQKFGTEWAQNTIVPKVLVMANDPNYLHRMTTLFCINALSEACGQEITTKQMLPIVLKMAGDQVANVRFNVAKSLQKIGPILDTNALQGEVKPVLQKLGQDEDMDVKYFAQEAISVLALA"
2,binds,"STRIP2, Q9ULQ0 1-834 (protein) MEDPAAPGTGGPPANGNGNGGGKGKQAAPKGREAFRSQRRESEGSVDCPTLEFEYGDADGHAAELSELYSYTENLEFTNNRRCFEEDFKTQVQGKEWLELEEDAQKAYIMGLLDRLEVVSRERRLKVARAVLYLAQGTFGECDSEVDVLHWSRYNCFLLYQMGTFSTFLELLHMEIDNSQACSSALRKPAVSIADSTELRVLLSVMYLMVENIRLERETDPCGWRTARETFRTELSFSMHNEEPFALLLFSMVTKFCSGLAPHFPIKKVLLLLWKVVMFTLGGFEHLQTLKVQKRAELGLPPLAEDSIQVVKSMRAASPPSYTLDLGESQLAPPPSKLRGRRGSRRQLLTKQDSLDIYNERDLFKTEEPATEEEEESAGDGERTLDGELDLLEQDPLVPPPPSQAPLSAERVAFPKGLPWAPKVRQKDIEHFLEMSRNKFIGFTLGQDTDTLVGLPRPIHESVKTLKQHKYISIADVQIKNEEELEKCPMSLGEEVVPETPCEILYQGMLYSLPQYMIALLKILLAAAPTSKAKTDSINILADVLPEEMPITVLQSMKLGIDVNRHKEIIVKSISTLLLLLLKHFKLNHIYQFEYVSQHLVFANCIPLILKFFNQNILSYITAKNSISVLDYPCCTIQDLPELTTESLEAGDNSQFCWRNLFSCINLLRLLNKLTKWKHSRTMMLVVFKSAPILKRALKVKQAMLQLYVLKLLKLQTKYLGRQWRKSNMKTMSAIYQKVRHRMNDDWAYGNDIDARPWDFQAEECTLRANIEAFNSRRYDRPQDSEFSPVDNCLQSVLGQRLDLPEDFHYSYELWLEREVFSQPICWEELLQNH"

# Target: FLAG-GFP PPP2R1A (UniProt P30153)
# Test: affinity purification with mass spectrometry + co-IP; Sequential FLAG then PC (Protein C matrix, EGTA elution) purification from MCF10A cells stably expressing FLAG-GFP PPP2R1A and PC-HA BRK1; mass spectrometry, silver stain and western blots
# Conditions: not given
row,binding,Binder
1,binds,"STRN (protein, UniProt O43815 1-780) MDEQAGPGVFFSNNHPGAGGAKGLGPLAEAAAAGDGAAAAGAARAQYSLPGILHFLQHEWARFEVERAQWEVERAELQAQIAFLQGERKGQENLKKDLVRRIKMLEYALKQERAKYHKLKYGTELNQGDMKPPSYDSDEGNETEVQPQQNSQLMWKQGRQLLRQYLQEVGYTDTILDVKSKRVRALLGFSSDVTDREDDKNQDSVVNGTEAEVKETAMIAKSELTDSASVLDNFKFLESAAADFSDEDEDDDVDGREKSVIDTSTIVRKKALPDSGEDRDTKEALKEFDFLVTSEEGDNESRSAGDGTDWEKEDQCLMPEAWNVDQGVITKLKEQYKKERKGKKGVKRPNRSKLQDMLANLRDVDELPSLQPSVGSPSRPSSSRLPEHEINRADEVEALTFPPSSGKSFIMGADEALESELGLGELAGLTVANEADSLTYDIANNKDALRKTWNPKFTLRSHFDGIRALAFHPIEPVLITASEDHTLKMWNLQKTAPAKKSTSLDVEPIYTFRAHKGPVLCVVMSSNGEQCYSGGTDGLIQGWNTTNPNIDPYDSYDPSVLRGPLLGHTDAVWGLAYSAAHQRLLSCSADGTLRLWNTTEVAPALSVFNDTKELGIPASVDLVSSDPSHMVASFSKGYTSIFNMETQQRILTLESNVDTTANSSCQINRVISHPTLPISITAHEDRHIKFYDNNTGKLIHSMVAHLEAVTSLAVDPNGLYLMSGSHDCSIRLWNLESKTCIQEFTAHRKKFEESIHDVAFHPSKCYIASAGADALAKVFV"

# Target: FLAG-GFP PPP2R1A (UniProt P30153)
# Test: affinity purification with mass spectrometry; Tandem affinity purification (FLAG then GFP) of FLAG-GFP PPP2R1A from stable MCF10A and MDA-MB-231 cells; XB-NP40 lysis buffer, 4 °C; FLAG-GFP as control
# Conditions: not given
row,binding,Binder
1,binds,"STRN (protein, UniProt O43815 1-780) MDEQAGPGVFFSNNHPGAGGAKGLGPLAEAAAAGDGAAAAGAARAQYSLPGILHFLQHEWARFEVERAQWEVERAELQAQIAFLQGERKGQENLKKDLVRRIKMLEYALKQERAKYHKLKYGTELNQGDMKPPSYDSDEGNETEVQPQQNSQLMWKQGRQLLRQYLQEVGYTDTILDVKSKRVRALLGFSSDVTDREDDKNQDSVVNGTEAEVKETAMIAKSELTDSASVLDNFKFLESAAADFSDEDEDDDVDGREKSVIDTSTIVRKKALPDSGEDRDTKEALKEFDFLVTSEEGDNESRSAGDGTDWEKEDQCLMPEAWNVDQGVITKLKEQYKKERKGKKGVKRPNRSKLQDMLANLRDVDELPSLQPSVGSPSRPSSSRLPEHEINRADEVEALTFPPSSGKSFIMGADEALESELGLGELAGLTVANEADSLTYDIANNKDALRKTWNPKFTLRSHFDGIRALAFHPIEPVLITASEDHTLKMWNLQKTAPAKKSTSLDVEPIYTFRAHKGPVLCVVMSSNGEQCYSGGTDGLIQGWNTTNPNIDPYDSYDPSVLRGPLLGHTDAVWGLAYSAAHQRLLSCSADGTLRLWNTTEVAPALSVFNDTKELGIPASVDLVSSDPSHMVASFSKGYTSIFNMETQQRILTLESNVDTTANSSCQINRVISHPTLPISITAHEDRHIKFYDNNTGKLIHSMVAHLEAVTSLAVDPNGLYLMSGSHDCSIRLWNLESKTCIQEFTAHRKKFEESIHDVAFHPSKCYIASAGADALAKVFV"
2,binds,"MOB4 (protein, UniProt Q9Y3A3 1-225) MVMAEGTAVLRRNRPGTKAQDFYNWPDESFDEMDSTLAVQQYIQQNIRADCSNIDKILEPPEGQDEGVWKYEHLRQFCLELNGLAVKLQSECHPDTCTQMTATEQWIFLCAAHKTPKECPAIDYTRHTLDGAACLLNSNKYFPSRVSIKESSVAKLGSVCRRIYRIFSHAYFHHRQIFDEYENETFLCHRFTKFVMKYNLMSKDNLIVPILEEEVQNSVSGESEA"
3,binds,"PPP2R3B (protein, UniProt Q9Y5P8 1-575) MPPGKVLQPVLKMKVDELFLYWLSEASTQRMLQDCLRRIKAPGRDQPTPGDGEQPGAWPTAPLAAPRPSGLEPPGTPGPGPALPLGAASSPRNAPHVRGTRRSAGTRVVQTRKEEPLPPATSQSIPTFYFPRGRPQDSVNVDAVISKIESTFARFPHERATMDDMGLVAKACGCPLYWKGPLFYGAGGERTGSVSVHKFVAMWRKILQNCHDDAAKFVHLLMSPGCNYLVQEDFVPFLQDVVNTHPGLSFLKEASEFHSRYITTVIQRIFYAVNRSWSGRITCAELRRSSFLQNVALLEEEADINQLTEFFSYEHFYVIYCKFWELDTDHDLLIDADDLARHNDHALSTKMIDRIFSGAVTRGRKVQKEGKISYADFVWFLISEEDKKTPTSIEYWFRCMDLDGDGALSMFELEYFYEEQCRRLDSMAIEALPFQDCLCQMLDLVKPRTEGKITLQDLKRCKLANVFFDTFFNIEKYLDHEQKEQISLLRDGDSGGPELSDWEKYAAEEYDILVAEETAGEPWEDGFEAELSPVEQKLSALRSPLAQRPFFEAPSPLGAVDLYEYACGDEDLEPL"
4,binds,"PPP2R2D (protein, UniProt Q66LE6 1-453) MAGAGGGGCPAGGNDFQWCFSQVKGAIDEDVAEADIISTVEFNYSGDLLATGDKGGRVVIFQREQENKSRPHSRGEYNVYSTFQSHEPEFDYLKSLEIEEKINKIRWLPQQNAAHFLLSTNDKTIKLWKISERDKRAEGYNLKDEDGRLRDPFRITALRVPILKPMDLMVEASPRRIFANAHTYHINSISVNSDHETYLSADDLRINLWHLEITDRSFNIVDIKPANMEELTEVITAAEFHPHQCNVFVYSSSKGTIRLCDMRSSALCDRHSKFFEEPEDPSSRSFFSEIISSISDVKFSHSGRYMMTRDYLSVKVWDLNMESRPVETHQVHEYLRSKLCSLYENDCIFDKFECCWNGSDSAIMTGSYNNFFRMFDRDTRRDVTLEASRESSKPRASLKPRKVCTGGKRRKDEISVDSLDFNKKILHTAWHPVDNVIAVAATNNLYIFQDKIN"
5,no binding,"WAVE3 (protein, UniProt Q9UPY6 1-502) MPLVKRNIEPRHLCRGALPEGITSELECVTNSTLAAIIRQLSSLSKHAEDIFGELFNEANNFYIRANSLQDRIDRLAVKVTQLDSTVEEVSLQDINMKKAFKSSTVQDQQVVSKNSIPNPVADIYNQSDKPPPLNILTPYRDDKKDGLKFYTDPSYFFDLWKEKMLQDTEDKRKEKRRQKEQKRIDGTTREVKKVRKARNRRQEWNMMAYDKELRPDNRLSQSVYHGASSEGSLSPDTRSHASDVTDYSYPATPNHSLHPQPVTPSYAAGDVPPHGPASQAAEHEYRPPSASARHMALNRPQQPPPPPPPQAPEGSQASAPMAPADYGMLPAQIIEYYNPSGPPPPPPPPVIPSAQTAFVSPLQMPMQPPFPASASSTHAAPPHPPSTGLLVTAPPPPGPPPPPPGPPGPGSSLSSSPMHGPPVAEAKRQEPAQPPISDARSDLLAAIRMGIQLKKVQEQREQEAKREPVGNDVATILSRRIAVEYSDSDDDSEFDENDWSD"
6,binds,"STRN4 (protein, UniProt Q9NRL3 1-753) MMEERAAAAVAAAASSCRPLGSGAGPGPTGAAPVSAPAPGPGPAGKGGGGGGSPGPTAGPEPLSLPGILHFIQHEWARFEAEKARWEAERAELQAQVAFLQGERKGQENLKTDLVRRIKMLEYALKQERAKYHKLKFGTDLNQGEKKADVSEQVSNGPVESVTLENSPLVWKEGRQLLRQYLEEVGYTDTILDMRSKRVRSLLGRSLELNGAVEPSEGAPRAPPGPAGLSGGESLLVKQIEEQIKRNAAGKDGKERLGGSVLGQIPFLQNCEDEDSDEDDELDSVQHKKQRVKLPSKALVPEMEDEDEEDDSEDAINEFDFLGSGEDGEGAPDPRRCTVDGSPHELESRRVKLQGILADLRDVDGLPPKVTGPPPGTPQPRPHEDVFIMDTIGGGEVSLGDLADLTVTNDNDLSCDLSDSKDAFKKTWNPKFTLRSHYDGIRSLAFHHSQSALLTASEDGTLKLWNLQKAVTAKKNAALDVEPIHAFRAHRGPVLAVAMGSNSEYCYSGGADACIHSWKIPDLSMDPYDGYDPSVLSHVLEGHGDAVWGLAFSPTSQRLASCSADGTVRIWDPSSSSPACLCTFPTASEHGVPTSVAFTSTEPAHIVASFRSGDTVLYDMEVGSALLTLESRGSSGPTQINQVVSHPNQPLTITAHDDRGIRFLDNRTGKPVHSMVAHLDAVTCLAVDPNGAFLMSGSHDCSLRLWSLDNKTCVQEITAHRKKHEEAIHAVACHPSKALIASAGADALAKVFV"
